Experimental data published in the supplement of paper PMC10849652.
This is one part of the list.

Sequences of proteins named here, by UniProt entry; tags and fusion partners are left off. A change or cut given only in a name is not applied to a line headed by its entry.
UniProt Q5U649: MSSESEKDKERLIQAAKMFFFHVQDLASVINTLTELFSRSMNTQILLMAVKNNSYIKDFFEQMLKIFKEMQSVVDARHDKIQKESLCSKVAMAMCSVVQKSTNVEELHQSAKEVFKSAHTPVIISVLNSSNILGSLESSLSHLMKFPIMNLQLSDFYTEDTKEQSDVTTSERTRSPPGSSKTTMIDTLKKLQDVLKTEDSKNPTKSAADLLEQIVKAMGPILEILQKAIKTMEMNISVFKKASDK
UniProt Q96N11, whole entry, looked up: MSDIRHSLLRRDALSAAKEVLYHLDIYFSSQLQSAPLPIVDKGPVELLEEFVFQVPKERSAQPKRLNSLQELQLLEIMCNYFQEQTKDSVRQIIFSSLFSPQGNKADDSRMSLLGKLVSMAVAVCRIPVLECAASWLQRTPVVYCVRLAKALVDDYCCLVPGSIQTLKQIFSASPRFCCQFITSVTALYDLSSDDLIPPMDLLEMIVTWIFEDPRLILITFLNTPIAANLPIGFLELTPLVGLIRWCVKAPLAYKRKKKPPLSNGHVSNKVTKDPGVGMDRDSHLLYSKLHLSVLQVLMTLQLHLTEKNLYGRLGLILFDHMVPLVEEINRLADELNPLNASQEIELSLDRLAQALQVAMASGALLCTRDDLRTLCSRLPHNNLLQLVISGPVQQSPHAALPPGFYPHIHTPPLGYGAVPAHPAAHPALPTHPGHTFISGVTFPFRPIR
UniProt Q9NSK7: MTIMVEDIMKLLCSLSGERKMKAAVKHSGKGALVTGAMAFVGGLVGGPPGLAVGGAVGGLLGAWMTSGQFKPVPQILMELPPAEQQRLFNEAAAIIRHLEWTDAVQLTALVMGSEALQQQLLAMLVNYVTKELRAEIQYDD
UniProt Q5SNV9: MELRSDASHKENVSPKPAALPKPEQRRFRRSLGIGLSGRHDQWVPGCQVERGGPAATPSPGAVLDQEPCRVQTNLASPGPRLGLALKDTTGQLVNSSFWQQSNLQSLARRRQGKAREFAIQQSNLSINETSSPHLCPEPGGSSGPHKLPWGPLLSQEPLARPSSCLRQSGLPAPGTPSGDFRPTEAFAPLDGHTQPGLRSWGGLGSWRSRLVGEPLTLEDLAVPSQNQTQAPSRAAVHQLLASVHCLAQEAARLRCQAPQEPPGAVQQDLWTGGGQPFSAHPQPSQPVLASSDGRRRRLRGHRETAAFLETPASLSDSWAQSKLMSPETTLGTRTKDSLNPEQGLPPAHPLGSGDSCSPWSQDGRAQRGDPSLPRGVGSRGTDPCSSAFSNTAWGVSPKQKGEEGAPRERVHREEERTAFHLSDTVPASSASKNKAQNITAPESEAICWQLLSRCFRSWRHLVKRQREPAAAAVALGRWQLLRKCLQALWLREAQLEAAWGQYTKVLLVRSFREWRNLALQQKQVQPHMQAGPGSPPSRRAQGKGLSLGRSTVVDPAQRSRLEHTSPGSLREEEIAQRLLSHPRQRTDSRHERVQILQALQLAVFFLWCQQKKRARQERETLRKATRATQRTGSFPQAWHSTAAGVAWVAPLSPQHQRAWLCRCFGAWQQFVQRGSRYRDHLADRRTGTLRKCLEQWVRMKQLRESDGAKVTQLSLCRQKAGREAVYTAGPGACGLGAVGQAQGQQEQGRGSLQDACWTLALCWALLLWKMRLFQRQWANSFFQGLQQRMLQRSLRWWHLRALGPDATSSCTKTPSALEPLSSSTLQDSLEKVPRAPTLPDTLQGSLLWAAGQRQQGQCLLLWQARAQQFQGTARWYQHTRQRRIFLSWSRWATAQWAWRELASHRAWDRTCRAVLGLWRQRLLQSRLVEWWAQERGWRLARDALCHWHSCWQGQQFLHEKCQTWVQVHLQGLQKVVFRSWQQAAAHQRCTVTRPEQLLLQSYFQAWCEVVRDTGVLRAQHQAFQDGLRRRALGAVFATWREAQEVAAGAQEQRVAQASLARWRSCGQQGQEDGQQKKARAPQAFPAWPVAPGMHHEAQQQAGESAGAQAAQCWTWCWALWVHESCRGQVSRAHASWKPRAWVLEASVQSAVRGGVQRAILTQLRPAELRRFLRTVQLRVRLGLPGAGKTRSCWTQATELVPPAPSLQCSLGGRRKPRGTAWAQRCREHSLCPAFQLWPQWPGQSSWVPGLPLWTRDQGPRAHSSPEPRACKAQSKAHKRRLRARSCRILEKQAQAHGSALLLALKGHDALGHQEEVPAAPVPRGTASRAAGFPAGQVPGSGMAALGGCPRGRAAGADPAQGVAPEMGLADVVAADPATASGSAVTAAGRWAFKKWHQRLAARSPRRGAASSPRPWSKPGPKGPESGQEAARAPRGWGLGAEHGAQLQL
UniProt P04003: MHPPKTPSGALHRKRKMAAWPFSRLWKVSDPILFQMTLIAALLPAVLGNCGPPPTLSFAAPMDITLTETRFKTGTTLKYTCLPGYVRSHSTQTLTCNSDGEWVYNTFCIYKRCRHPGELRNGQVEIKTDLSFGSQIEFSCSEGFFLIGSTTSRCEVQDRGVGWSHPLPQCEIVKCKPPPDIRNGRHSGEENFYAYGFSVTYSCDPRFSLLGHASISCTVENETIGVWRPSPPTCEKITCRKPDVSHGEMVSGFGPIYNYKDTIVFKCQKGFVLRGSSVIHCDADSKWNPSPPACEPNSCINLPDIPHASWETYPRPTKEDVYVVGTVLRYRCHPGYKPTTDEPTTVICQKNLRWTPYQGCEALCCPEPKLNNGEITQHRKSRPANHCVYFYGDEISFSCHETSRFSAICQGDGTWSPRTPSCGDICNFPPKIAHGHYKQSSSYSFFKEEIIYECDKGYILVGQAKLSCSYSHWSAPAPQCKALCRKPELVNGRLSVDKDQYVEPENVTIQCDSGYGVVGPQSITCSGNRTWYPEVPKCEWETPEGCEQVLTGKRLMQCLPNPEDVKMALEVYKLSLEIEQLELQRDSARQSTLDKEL
UniProt Q96NL8: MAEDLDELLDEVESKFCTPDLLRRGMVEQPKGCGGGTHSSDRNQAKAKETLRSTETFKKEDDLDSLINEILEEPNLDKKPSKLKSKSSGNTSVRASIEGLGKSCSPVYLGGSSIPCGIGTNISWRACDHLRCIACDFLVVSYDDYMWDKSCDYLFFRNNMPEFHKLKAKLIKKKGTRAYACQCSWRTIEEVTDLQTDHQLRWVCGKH
UniProt Q5SQH8: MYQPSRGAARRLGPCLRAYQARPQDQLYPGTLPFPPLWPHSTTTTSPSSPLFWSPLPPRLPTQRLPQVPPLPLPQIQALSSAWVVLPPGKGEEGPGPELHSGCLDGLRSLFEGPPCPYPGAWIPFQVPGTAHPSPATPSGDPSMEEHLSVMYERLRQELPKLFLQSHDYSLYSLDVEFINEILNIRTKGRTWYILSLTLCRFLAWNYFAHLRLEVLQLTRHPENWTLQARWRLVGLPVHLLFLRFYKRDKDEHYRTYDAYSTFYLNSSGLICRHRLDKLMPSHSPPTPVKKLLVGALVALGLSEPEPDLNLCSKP
UniProt Q5BKX5: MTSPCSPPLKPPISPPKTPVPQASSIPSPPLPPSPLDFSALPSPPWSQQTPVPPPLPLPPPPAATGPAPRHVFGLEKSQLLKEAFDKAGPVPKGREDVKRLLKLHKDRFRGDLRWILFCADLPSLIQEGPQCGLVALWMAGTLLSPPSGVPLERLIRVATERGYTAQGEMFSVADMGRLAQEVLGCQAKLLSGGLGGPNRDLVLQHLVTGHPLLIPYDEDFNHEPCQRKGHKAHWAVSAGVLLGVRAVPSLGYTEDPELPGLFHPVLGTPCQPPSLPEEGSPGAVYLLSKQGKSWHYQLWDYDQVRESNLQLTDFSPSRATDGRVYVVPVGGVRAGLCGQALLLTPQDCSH
UniProt Q9BRD0: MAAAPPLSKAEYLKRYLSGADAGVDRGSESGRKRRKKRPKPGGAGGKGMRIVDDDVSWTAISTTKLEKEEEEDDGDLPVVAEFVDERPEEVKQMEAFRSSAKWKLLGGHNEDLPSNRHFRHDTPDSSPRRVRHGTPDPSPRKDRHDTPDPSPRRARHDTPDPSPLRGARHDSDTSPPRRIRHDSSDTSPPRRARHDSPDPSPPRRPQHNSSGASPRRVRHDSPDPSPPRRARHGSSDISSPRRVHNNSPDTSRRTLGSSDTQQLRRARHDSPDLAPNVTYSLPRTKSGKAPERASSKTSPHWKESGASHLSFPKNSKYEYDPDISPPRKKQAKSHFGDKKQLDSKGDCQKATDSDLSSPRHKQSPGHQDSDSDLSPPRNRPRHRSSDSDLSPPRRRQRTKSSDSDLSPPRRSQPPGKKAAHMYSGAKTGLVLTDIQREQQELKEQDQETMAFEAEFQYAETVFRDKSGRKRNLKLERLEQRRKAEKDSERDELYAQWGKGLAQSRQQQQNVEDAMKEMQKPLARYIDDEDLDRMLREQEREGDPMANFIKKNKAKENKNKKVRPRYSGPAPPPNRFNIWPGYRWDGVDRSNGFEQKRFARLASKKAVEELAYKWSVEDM
UniProt Q9NSG2: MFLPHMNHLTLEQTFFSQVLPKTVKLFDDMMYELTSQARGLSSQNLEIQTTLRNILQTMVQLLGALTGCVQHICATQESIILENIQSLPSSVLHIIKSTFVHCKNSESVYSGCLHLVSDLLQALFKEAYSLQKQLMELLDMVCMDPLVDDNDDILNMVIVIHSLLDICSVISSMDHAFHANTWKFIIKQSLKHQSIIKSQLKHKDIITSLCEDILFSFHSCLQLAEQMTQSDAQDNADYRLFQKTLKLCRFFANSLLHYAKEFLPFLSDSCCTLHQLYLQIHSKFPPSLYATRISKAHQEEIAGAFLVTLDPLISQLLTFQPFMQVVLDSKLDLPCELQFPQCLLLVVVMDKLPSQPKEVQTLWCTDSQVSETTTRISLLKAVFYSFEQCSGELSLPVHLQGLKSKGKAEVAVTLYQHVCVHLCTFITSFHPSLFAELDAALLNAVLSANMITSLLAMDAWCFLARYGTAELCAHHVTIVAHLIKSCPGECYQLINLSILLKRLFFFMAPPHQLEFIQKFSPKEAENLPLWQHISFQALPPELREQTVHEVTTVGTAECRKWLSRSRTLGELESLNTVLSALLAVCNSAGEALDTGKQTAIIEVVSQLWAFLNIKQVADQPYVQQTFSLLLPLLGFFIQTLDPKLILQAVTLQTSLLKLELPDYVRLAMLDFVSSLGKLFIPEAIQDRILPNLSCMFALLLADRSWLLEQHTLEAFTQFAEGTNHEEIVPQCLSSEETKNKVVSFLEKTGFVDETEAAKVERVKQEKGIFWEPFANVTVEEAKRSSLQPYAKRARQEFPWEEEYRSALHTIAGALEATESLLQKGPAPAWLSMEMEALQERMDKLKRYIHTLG
UniProt Q7Z4R8: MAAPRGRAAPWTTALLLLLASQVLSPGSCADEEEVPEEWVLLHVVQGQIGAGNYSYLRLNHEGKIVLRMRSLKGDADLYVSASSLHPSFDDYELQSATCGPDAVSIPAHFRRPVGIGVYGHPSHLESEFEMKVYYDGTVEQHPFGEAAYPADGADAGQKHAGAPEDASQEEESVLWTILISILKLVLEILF
UniProt Q96GV9: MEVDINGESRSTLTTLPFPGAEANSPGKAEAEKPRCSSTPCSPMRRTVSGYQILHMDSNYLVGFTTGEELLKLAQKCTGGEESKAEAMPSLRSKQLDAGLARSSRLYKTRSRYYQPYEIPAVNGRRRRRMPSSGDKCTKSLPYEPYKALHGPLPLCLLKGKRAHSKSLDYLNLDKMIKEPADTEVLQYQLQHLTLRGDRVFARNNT
UniProt Q7Z7L8: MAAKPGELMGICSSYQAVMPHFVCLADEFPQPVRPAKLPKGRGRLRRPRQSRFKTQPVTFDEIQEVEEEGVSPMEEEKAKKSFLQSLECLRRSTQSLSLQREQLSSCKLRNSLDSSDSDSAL
UniProt Q3KRA6: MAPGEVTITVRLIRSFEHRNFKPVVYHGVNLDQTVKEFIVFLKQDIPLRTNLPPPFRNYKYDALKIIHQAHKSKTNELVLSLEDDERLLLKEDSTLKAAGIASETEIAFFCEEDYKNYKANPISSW
UniProt Q7Z6I8: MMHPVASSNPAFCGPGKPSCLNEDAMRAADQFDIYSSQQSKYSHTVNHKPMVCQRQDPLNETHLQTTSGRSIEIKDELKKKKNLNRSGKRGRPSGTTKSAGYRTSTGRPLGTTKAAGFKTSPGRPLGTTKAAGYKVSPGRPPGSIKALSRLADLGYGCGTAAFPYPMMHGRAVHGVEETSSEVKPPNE
UniProt Q9Y2G2: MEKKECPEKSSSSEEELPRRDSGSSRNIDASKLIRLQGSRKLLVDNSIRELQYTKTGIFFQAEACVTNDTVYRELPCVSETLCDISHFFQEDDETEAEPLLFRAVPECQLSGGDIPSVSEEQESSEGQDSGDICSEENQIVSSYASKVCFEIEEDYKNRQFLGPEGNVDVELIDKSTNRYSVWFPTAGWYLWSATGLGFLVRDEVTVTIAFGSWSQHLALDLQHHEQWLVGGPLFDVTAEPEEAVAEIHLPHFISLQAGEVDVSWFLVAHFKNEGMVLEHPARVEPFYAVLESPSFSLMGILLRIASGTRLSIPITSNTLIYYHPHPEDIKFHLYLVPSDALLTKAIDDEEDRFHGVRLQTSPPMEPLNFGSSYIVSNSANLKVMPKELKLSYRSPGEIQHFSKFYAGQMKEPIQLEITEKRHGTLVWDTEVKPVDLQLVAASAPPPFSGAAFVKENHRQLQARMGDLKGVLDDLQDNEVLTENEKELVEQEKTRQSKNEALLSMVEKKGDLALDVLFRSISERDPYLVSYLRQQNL

Tests used:
Assay in all cases: log2 fold change, soluble protein after heating vs DMSO (PISA); higher = thermal stabilisation; K562 cells, 10 uM, 30 min; active = over 0.2 and 3.5 SD of the protein, either way, in both replicates (recomputed)
[1] = compound: C1=CC=C(C=C1)[C@H](COC2=CC3=C(C=C2)NC(=O)N3)NC(=O)C4=CC=CN(C4=O)CC5=CC(=C(C=C5)F)F
In short: (§1)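 Quantification of soluble protein used TMTpro 16plex LC-MS/MS, with channel sums equalised. Samples were the supernatant after 21,000xg for 90 min of pooled aliquots from K562 cells (2×10^6 cells/mL) treated with 10 μM compound for 30 min, heated for 3 min over 48°C-58°C, and extracted in PBS with 0.5% NP-40 at 4°C. Values, from duplicates, describe thermal stability against control samples on a log2 fold-change scale.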

[2] = compound: CC1=C2C(=CC=C1)N=C(N(C2=O)C3=CC=CC=C3C)CN4C=NC5=C(N=CN=C54)N
In short: as §1

[3] = compound: Cc1sc2c(c1C)C(c1ccc(Cl)cc1)=N[C@@H](CC(=O)OC(C)(C)C)c1nnc(C)n1-2
In short: as §1

[4] = compound: CC1=C(SC2=C1C(=N[C@H](C3=NN=C(N32)C)CC(=O)N)C4=CC=C(C=C4)Cl)C
In short: as §1

[5] = compound: c1ccc([C@@H]2C[C@H]2NC2CCNCC2)cc1
In short: as §1

Target	log2 fold change [1]	log2 fold change [2]	log2 fold change [3]	log2 fold change [4]	log2 fold change [5]
CA1 (UniProt E5RIF9)	inactive: -0.021	inactive: 0.187	inactive: 0.143		
C12orf60 (UniProt Q5U649)	inactive: -0.027		inactive: -0.269		
C7orf26 (UniProt Q96N11)	inactive: -0.021	inactive: 0.171			
C19orf12 (UniProt Q9NSK7)	inactive: -0.04		inactive: -0.106		
C1orf167 isoform 2 (UniProt Q5SNV9)	inactive: -0.073	inactive: 0.22		inactive: -0.021	inactive: 0.057
C4BPA (UniProt P04003)	inactive: 0.006		inactive: 0.378	inactive: 0.236	inactive: -0.474
C8orf37 (UniProt Q96NL8)			inactive: -0.039		
CALD1 (UniProt Q05682)				inactive: -0.052	inactive: 0.011
C6orf136 isoform 4 (UniProt Q5SQH8)	inactive: 0.178		inactive: -0.37		
C19orf54 (UniProt Q5BKX5)		inactive: 0.059	inactive: 0.004	inactive: -0.014	inactive: 0.114
BUD13 (UniProt Q9BRD0)		inactive: 0.042	inactive: 0.222	inactive: -0.108	inactive: 0.068
C1orf159 isoform 4 (UniProt Q96HA4)	inactive: 0.035	inactive: 0.05		inactive: 0.111	inactive: 0.45
C1orf112 (UniProt Q9NSG2)		inactive: 0.141	inactive: -0.029		
C5 (UniProt P01031)		inactive: 0.012	inactive: 0.107	inactive: -0.211	inactive: 0.227
C6orf120 (UniProt Q7Z4R8)	inactive: -0.018	active: 0.37	inactive: -0.038		
C5orf30 (UniProt Q96GV9)			inactive: -0.417		
C11orf96 (UniProt Q7Z7L8)		inactive: -0.071		inactive: -0.221	inactive: 0.179
BTRC (UniProt Q9Y297)	inactive: -0.013	inactive: 0.242	inactive: 0.029		
C2orf76 (UniProt Q3KRA6)	inactive: 0.042	inactive: 0.079	inactive: 0.053		
CARD11 (UniProt Q9BXL7)				inactive: -0.003	inactive: -0.071
C1D (UniProt Q13901)	inactive: -0.019	inactive: 0.028	inactive: 0.074		
C5orf24 (UniProt Q7Z6I8)		inactive: -0.109	inactive: 0.039		
C9 (UniProt P02748)			inactive: -0.027	inactive: 0.413	inactive: -0.107
CARD8 isoform 5 (UniProt Q9Y2G2)	inactive: 0.012	inactive: 0.034	inactive: -0.045		

2 entries from above, with each value named.
C9 (UniProt P02748)
  log2 fold change [3]: inactive: -0.027
  log2 fold change [4]: inactive: 0.413
  log2 fold change [5]: inactive: -0.107
CARD8 isoform 5 (UniProt Q9Y2G2)
  log2 fold change [1]: inactive: 0.012
  log2 fold change [2]: inactive: 0.034
  log2 fold change [3]: inactive: -0.045
